Laboratory results: the supplement of paper PMC12872613
Counter-ions that a name gives are not always drawn. The list shows a part of the results. Rule as the data show it: active = 0.7 or more and inactive = the rest. Single values are uncertain, as repeats are few or missing.

System: MiaPaCa-2 CLSA-25
Test: cell death relative to DMSO vehicle (fraction); higher = more cytotoxic
Conditions: 5 µM; treatment time 48 h; medium cystine 25 µM

| SMILES | cell death |
| --- | --- |
| CN1CCc2nc(C(=O)N[C@@H]3C[C@@H](C(=O)N(C)C)CC[C@@H]3NC(=O)C(=O)Nc3ccc(Cl)cn3)sc2C1 [Edoxaban Tosylate Monohydrate] | inactive: 0.143 |
| O=C(Nc1cccnn1)N1CCC(=Cc2cccc(Oc3ccc(C(F)(F)F)cn3)c2)CC1 | inactive: 0.0286 |
| N[C@@H](Cc1c[nH]cn1)C(=O)O [histidine] | inactive: 0.109 |
| O=C(Oc1ccc([N+](=O)[O-])cc1)N1CCC(C(O)(c2ccc3c(c2)OCO3)c2ccc3c(c2)OCO3)CC1 | active: 0.835 |
| CN1CCc2nc(C(=O)N[C@@H]3C[C@@H](C(=O)N(C)C)CC[C@@H]3NC(=O)C(=O)Nc3ccc(Cl)cn3)sc2C1 [Edoxaban] | inactive: 0.148 |
| Cc1c(-c2cnccn2)ssc1=S [Oltipraz] | inactive: 0.317 |
| O=c1ccc2ccccc2o1 [Coumarin] | inactive: 0.385 |
| Cn1c(=O)c2nc[nH]c2n(C)c1=O [Theophylline] | inactive: 0.0211 |
| CC(=O)/N=c1/sc(S(N)(=O)=O)nn1C [Methazolamide] | inactive: 0.177 |
